According to paper PMC5216726:
Results are given in words; binding and its absence hold for the method and conditions named. In cells and extracts the contact can be indirect. Some entries that bind do so weakly or less than the wild type. One block for each molecule: values may come before it.

Amino acid sequences for entries named in this document (tags omitted).
UniProt G3V7R4: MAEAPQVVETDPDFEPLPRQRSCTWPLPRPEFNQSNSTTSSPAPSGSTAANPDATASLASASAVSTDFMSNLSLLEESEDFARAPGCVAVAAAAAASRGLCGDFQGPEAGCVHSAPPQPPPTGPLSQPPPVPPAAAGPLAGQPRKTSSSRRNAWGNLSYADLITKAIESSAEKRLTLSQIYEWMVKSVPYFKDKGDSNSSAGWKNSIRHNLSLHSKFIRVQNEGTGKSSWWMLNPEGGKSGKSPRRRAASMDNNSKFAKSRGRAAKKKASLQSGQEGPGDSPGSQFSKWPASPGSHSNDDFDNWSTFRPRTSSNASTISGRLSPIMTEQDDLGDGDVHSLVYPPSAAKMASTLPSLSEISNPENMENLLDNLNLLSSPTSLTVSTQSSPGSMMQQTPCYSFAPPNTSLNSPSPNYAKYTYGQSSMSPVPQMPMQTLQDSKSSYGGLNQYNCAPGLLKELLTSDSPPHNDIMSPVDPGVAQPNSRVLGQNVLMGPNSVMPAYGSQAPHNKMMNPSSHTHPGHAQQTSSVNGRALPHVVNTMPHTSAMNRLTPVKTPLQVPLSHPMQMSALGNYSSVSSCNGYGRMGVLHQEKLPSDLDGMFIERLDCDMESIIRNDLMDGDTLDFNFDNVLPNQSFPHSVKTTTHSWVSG
UniProt Q9R1E0: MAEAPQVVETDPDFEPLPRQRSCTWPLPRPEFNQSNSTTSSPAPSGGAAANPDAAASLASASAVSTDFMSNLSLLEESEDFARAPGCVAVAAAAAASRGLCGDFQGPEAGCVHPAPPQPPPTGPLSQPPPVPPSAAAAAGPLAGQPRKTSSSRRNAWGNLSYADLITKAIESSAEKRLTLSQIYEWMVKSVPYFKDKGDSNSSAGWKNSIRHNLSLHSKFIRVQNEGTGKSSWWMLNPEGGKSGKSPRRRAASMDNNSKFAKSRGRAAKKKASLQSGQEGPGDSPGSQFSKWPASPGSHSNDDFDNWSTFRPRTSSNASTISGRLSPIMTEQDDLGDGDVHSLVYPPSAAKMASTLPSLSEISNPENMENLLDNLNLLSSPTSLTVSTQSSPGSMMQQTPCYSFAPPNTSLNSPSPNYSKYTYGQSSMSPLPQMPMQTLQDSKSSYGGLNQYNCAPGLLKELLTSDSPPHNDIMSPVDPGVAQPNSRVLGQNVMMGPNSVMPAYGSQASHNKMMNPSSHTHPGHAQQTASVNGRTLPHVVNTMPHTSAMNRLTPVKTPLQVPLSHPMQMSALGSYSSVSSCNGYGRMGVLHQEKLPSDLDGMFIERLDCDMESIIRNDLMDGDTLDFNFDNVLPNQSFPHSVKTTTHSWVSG

What was measured:
[1] = biological target: T1, Atg7 (mouse (endogenous in MPC5 podocytes)) (UniProt Q9D906); assay: co-IP; whole-cell lysate of MPC5 podocytes (control, 10^-7 M Aldo, siRNA-Con or siRNA-P300); IP with anti-Ac-FOXO1 or anti-Atg7, Protein A/G-agarose, 4°C overnight, blot for the other protein; lysis buffer 150 mM NaCl, 0.1% Triton X-100, 0.5% deoxycholate, 0.1% SDS, 50 mM Tris-HCl pH 7.0, 1 mM EDTA
T1 sequence: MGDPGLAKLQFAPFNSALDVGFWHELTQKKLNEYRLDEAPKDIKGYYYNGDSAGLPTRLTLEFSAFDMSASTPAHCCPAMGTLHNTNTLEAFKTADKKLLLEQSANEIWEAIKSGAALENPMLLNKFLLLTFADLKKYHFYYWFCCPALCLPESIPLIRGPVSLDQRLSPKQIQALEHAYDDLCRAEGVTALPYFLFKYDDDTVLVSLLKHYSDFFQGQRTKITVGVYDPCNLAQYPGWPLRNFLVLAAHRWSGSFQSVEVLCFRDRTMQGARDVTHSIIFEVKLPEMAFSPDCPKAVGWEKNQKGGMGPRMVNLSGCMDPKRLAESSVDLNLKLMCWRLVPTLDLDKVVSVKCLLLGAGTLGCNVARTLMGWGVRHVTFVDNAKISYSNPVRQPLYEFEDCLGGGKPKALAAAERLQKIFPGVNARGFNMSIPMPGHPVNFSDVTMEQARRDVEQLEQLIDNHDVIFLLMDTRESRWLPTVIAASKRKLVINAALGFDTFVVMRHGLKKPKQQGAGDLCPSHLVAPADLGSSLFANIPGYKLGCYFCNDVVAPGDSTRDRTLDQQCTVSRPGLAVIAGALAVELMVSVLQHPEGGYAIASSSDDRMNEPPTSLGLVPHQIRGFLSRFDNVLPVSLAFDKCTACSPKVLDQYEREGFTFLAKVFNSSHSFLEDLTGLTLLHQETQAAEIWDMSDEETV

[2] = biological target: acetylated FOXO1 (rat glomeruli) (rat (endogenous in glomeruli)) (UniProt G3V7R4); assay: co-IP; lysate of freshly isolated glomeruli of control and Aldo-infused rats; IP with anti-Ac-FOXO1, Protein A/G-agarose, 4°C overnight, blot for Atg7; lysis buffer 150 mM NaCl, 0.1% Triton X-100, 0.5% deoxycholate, 0.1% SDS, 50 mM Tris-HCl pH 7.0, 1 mM EDTA
[3] = biological target: acetylated FOXO1 (mouse (endogenous in MPC5 podocytes)) (UniProt Q9R1E0); assay: co-IP; whole-cell lysate of MPC5 podocytes (control, 10^-7 M Aldo, siRNA-Con or siRNA-P300); IP with anti-Ac-FOXO1 or anti-Atg7, Protein A/G-agarose, 4°C overnight, blot for the other protein; lysis buffer 150 mM NaCl, 0.1% Triton X-100, 0.5% deoxycholate, 0.1% SDS, 50 mM Tris-HCl pH 7.0, 1 mM EDTA

binding [1]: binds
Molecule: acetylated FOXO1 (from UniProt Q9R1E0 1-652)

binding [2]: binds
B1: Atg7 (rat glomeruli) (protein, UniProt Q641Y5 1-698)
chain: MGDPGLSKLQFAPFNSALDVGFWHELTQKKLNEYRLDEAPKDIKGYYYNGDSAGLPTRLTLEFSAFDMSAPTPARCCPAMGTLHNTNTLEAFKTADKKLLLEQSANEIWEAIKSGAALENPMLLNKFLLLTFADLKKYHFYYWFCCPALCLPESIPLIRGPVGLDQRLSPKQIQALEHAYDDLCRTEGVTALPYFLFKYDDDTVLVSLLKHYSDFFQGQRTKLTVGVYDPCNLTQHPGWPLRNFLVLAAHRWSGSFQSVEVLCFRDRTMQGARDVTHSIIFEVKLPEMAFSPDCPKAVGWEKNQKGGMGPRMVNLSGCMDPKRLAESSVDLNLKLMCWRLVPTLDLDKVVSVKCLLLGAGTLGCNVARTLMGWGVRHVTFVDNAKISYSNPVRQPLYEFEDCLGGGKPKALAAAERLQKIFPGVNASGFNMSIPMPGHPVNFSDVTMEQARRDVEQLEELIDSHDVIFLLMDTRESRWLPTVIAASKRKLVINAALGFDTFVVMRHGLKKPKQQGAGDLCPSHLVAPADLGSSLFANIPGYKLGCYFCNDVVAPGDSTRDRTLDQQCTVSRPGLAVIAGALAVELMVSVLQHPEGGYAIASSSDDRMNEPPTSLGLVPHQIRGFLSRFDNVLPVSLAFDKCTACSSKVLDQYEQEGFTFLAKVFNSSHSFLEDLTGLTLLHQETQAAEIWDMSDEETV

binding [3]: binds
B2: Atg7 (protein, UniProt Q9D906 1-698)
chain: T1 sequence
